Measured values as given in the supplement of paper PMC10849652.
This is one part of the list.

Sequences of proteins named here, by UniProt entry; tags and fusion partners are left off. A change or cut given only in a name is not applied to a line headed by its entry.
UniProt P50502: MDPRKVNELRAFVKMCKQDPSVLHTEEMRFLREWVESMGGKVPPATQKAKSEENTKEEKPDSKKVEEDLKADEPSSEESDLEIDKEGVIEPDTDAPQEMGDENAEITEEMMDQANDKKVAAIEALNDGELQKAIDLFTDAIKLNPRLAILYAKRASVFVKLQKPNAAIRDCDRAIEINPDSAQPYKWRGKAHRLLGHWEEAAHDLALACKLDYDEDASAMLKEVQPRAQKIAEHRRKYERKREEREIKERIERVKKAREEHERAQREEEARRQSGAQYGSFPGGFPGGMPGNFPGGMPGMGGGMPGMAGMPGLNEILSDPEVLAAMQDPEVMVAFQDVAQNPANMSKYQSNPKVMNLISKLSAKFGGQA
UniProt O95630, whole entry, looked up: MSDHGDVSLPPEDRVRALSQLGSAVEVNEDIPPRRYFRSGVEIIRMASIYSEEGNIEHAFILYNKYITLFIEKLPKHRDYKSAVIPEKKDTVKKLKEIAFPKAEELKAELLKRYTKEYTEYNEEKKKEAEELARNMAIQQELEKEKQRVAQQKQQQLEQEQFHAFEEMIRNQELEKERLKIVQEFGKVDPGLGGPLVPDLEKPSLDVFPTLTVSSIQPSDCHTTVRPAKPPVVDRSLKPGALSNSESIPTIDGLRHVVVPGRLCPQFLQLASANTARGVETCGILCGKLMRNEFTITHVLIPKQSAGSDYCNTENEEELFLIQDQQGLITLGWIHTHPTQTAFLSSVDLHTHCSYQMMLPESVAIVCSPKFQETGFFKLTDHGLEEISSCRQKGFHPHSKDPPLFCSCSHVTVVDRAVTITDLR
UniProt Q9UQ90: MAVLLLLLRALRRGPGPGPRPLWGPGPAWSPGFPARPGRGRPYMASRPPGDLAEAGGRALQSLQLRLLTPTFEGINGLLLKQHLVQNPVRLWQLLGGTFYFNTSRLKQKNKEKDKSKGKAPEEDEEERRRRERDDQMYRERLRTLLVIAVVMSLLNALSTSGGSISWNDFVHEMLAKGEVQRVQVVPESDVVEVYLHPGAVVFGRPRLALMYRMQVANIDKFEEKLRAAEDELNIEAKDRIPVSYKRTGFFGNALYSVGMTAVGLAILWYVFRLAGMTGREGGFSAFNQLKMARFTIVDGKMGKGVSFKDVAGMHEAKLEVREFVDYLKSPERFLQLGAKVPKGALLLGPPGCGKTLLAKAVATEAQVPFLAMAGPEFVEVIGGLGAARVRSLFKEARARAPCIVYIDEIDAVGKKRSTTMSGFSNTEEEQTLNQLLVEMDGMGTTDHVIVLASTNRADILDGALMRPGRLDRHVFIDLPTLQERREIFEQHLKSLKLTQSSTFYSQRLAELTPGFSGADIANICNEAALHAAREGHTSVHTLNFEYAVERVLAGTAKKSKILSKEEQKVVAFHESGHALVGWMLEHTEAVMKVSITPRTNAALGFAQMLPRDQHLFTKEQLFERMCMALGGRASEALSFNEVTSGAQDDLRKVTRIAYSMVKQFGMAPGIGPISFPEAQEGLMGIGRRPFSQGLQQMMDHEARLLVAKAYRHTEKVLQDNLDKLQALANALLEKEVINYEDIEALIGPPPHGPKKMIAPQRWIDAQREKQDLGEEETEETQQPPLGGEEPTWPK
UniProt P37108: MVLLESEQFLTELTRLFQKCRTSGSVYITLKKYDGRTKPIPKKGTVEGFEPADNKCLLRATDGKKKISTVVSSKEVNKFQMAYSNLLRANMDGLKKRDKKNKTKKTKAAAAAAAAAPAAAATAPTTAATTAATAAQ
UniProt Q9BVQ7: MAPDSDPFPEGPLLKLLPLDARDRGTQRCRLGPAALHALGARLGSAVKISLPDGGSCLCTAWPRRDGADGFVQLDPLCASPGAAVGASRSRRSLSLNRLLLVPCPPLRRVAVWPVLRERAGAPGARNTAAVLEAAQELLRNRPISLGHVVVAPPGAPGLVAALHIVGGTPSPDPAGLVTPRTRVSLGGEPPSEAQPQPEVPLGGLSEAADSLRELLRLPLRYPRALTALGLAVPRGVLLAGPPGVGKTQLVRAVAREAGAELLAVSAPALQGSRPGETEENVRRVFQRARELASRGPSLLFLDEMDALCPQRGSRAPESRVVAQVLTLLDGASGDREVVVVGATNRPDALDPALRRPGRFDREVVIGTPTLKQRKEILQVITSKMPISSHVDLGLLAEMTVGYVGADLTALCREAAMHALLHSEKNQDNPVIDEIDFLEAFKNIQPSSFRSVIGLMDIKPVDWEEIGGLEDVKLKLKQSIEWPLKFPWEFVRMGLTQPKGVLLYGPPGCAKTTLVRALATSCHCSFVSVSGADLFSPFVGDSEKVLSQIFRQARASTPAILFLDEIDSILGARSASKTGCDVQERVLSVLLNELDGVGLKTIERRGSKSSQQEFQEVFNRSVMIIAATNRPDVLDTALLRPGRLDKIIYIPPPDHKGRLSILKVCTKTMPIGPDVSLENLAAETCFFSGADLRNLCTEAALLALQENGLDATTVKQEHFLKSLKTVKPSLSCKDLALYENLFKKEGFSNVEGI
UniProt Q8NB90: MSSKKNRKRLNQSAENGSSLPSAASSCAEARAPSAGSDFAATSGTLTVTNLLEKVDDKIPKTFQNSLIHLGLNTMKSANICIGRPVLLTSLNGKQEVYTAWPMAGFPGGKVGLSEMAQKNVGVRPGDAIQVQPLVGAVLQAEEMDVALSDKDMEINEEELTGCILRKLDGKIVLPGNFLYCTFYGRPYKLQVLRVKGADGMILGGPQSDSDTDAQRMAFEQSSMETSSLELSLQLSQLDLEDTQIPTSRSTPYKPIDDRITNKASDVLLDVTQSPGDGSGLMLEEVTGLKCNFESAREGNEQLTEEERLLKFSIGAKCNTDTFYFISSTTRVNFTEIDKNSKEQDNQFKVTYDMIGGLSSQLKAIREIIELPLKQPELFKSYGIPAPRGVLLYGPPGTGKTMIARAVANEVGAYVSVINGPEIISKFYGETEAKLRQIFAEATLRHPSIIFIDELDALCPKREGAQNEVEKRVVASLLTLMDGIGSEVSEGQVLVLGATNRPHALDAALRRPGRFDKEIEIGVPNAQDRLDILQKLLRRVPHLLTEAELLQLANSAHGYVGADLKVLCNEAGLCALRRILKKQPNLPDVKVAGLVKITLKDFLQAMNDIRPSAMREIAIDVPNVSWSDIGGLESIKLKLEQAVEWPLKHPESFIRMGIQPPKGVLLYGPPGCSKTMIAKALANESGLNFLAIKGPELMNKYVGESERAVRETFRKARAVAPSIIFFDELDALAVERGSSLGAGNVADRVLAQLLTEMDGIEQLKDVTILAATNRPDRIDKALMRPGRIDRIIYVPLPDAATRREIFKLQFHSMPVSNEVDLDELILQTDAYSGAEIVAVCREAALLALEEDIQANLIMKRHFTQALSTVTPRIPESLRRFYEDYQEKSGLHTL
UniProt Q8NBT2: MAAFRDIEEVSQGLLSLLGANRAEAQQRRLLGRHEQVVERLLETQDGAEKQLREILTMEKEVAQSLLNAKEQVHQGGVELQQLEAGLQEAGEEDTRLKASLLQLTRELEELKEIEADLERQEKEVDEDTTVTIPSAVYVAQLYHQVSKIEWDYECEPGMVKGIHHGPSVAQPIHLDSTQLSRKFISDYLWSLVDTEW
UniProt P42224: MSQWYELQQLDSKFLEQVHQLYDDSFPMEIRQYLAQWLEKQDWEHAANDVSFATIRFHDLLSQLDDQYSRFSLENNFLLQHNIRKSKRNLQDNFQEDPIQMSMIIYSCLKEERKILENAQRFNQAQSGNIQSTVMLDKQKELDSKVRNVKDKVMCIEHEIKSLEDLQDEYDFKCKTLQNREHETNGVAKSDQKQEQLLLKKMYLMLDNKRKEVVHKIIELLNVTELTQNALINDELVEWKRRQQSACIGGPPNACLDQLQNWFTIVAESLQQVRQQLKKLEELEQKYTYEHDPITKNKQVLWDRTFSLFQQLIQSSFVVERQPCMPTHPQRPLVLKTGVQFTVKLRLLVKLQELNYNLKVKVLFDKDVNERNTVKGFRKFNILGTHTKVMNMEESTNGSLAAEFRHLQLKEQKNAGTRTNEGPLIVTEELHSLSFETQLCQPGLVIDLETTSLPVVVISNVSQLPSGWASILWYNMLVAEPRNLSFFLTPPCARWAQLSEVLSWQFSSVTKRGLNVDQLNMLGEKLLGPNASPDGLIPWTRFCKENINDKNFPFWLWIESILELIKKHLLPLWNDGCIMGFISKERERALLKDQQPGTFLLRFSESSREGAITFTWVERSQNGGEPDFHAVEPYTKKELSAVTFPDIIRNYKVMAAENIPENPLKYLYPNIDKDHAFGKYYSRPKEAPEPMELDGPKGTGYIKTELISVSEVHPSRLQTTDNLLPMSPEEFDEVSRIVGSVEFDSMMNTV
UniProt P61009: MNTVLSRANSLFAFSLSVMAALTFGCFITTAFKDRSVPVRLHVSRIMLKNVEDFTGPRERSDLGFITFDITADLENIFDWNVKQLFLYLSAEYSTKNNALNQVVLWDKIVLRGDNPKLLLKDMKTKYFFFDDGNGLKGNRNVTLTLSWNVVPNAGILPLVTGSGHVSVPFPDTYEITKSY
UniProt O15269: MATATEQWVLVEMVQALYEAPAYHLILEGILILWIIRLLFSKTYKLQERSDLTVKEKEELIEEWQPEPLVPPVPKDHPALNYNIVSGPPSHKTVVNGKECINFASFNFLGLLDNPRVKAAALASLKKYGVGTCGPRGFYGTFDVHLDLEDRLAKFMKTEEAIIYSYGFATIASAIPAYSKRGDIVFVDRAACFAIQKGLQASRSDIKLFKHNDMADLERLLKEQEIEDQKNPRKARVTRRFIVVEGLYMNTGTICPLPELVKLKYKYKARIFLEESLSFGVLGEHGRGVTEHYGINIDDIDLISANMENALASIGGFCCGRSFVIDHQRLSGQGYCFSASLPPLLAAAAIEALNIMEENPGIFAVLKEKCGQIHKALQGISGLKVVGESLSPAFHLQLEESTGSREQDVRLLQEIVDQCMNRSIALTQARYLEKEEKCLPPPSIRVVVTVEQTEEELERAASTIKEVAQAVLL
UniProt Q9BWG4: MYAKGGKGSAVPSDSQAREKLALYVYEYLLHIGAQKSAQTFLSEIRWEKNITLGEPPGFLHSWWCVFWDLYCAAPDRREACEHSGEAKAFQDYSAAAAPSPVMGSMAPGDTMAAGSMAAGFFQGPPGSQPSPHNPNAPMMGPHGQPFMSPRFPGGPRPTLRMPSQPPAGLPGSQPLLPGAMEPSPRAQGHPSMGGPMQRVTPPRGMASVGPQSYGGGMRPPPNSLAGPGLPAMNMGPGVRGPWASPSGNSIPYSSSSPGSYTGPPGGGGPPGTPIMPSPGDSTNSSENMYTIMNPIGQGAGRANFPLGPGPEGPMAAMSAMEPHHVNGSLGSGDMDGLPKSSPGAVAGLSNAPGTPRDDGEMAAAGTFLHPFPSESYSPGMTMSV
UniProt Q9UH36: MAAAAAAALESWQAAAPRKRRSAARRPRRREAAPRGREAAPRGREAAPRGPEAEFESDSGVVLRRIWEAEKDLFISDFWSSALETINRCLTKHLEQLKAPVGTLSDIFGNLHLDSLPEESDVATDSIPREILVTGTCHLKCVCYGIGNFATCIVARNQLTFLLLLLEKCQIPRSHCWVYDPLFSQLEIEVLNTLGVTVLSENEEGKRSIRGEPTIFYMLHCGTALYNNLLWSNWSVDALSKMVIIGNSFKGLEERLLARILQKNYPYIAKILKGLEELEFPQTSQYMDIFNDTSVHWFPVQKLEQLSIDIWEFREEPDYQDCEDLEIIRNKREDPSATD
UniProt P52630: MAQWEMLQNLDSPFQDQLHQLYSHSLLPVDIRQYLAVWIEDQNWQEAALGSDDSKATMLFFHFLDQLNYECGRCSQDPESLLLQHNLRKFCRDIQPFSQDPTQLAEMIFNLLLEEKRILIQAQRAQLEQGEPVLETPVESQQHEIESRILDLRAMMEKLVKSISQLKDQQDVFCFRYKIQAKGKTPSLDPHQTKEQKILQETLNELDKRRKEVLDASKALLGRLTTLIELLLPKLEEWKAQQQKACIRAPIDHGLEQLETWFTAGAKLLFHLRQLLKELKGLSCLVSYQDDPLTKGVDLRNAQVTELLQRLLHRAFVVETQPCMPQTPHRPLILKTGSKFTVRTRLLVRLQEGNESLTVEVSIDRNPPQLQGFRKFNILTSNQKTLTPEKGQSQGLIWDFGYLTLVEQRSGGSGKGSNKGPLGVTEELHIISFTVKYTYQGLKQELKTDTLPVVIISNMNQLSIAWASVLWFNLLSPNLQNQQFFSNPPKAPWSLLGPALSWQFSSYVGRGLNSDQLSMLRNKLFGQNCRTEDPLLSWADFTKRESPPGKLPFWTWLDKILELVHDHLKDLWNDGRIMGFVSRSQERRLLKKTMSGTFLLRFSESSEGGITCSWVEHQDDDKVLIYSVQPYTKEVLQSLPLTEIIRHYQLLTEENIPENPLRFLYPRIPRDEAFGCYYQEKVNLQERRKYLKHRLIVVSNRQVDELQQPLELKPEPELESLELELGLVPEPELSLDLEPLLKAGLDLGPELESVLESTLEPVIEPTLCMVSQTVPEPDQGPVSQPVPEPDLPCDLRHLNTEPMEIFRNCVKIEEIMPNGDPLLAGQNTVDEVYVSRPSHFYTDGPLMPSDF

Experiments:
Assay in all cases: log2 fold change, soluble protein after heating vs DMSO (PISA); higher = thermal stabilisation; K562 cells, 10 uM, 30 min; active = over 0.2 and 3.5 SD of the protein, either way, in both replicates (recomputed)
[1] = compound: NC(=O)Nc1cc(-c2cccc(F)c2)sc1C(=O)N[C@H]1CCCNC1
Method in brief: (§1)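 Quantification of soluble protein used TMTpro 16plex LC-MS/MS, with channel sums equalised. Samples were the supernatant after 21,000xg for 90 min of pooled aliquots from K562 cells (2×10^6 cells/mL) treated with 10 μM compound for 30 min, heated for 3 min over 48°C-58°C, and extracted in PBS with 0.5% NP-40 at 4°C. Values, from duplicates, describe thermal stability against control samples on a log2 fold-change scale.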

[2] = compound: NC(=O)c1cnc(N[C@@H]2CCCC[C@@H]2N)nc1Nc1cccc(-n2nccn2)c1
Method in brief: as §1

[3] = compound: NC1(c2ccc(-c3nc4ccn5c(=O)[nH]nc5c4cc3-c3ccccc3)cc2)CCC1
Method in brief: as §1

[4] = compound: NCC(=O)Nc1ccc(-n2nc(C(F)(F)F)cc2-c2ccc3c(ccc4ccccc43)c2)cc1
Method in brief: as §1

entinostat = compound: Nc1ccccc1NC(=O)c1ccc(CNC(=O)OCc2cccnc2)cc1 [entinostat]
Method in brief: as §1

vorinostat = compound: O=C(CCCCCCC(=O)Nc1ccccc1)NO [vorinostat]
Method in brief: as §1

citarinostat = compound: O=C(CCCCCCNC(=O)c1cnc(N(c2ccccc2)c2ccccc2Cl)nc1)NO [citarinostat]
Method in brief: as §1

silmitasertib = compound: O=C(O)c1ccc2c(c1)nc(Nc1cccc(Cl)c1)c1ccncc12 [silmitasertib]
Method in brief: as §1

[5] = compound: O=C1NC(=O)C(c2cnc3ccccn23)=C1c1cn2c3c(cc(F)cc13)CN(C(=O)N1CCCCC1)CC2
Method in brief: as §1

[6] = compound: c1cc(OCCN2CCCCC2)cc(-c2n[nH]c3ccc(-c4nnc[nH]4)cc23)c1
Method in brief: as §1

entospletinib = compound: c1cn2cc(-c3ccc4cn[nH]c4c3)nc(Nc3ccc(N4CCOCC4)cc3)c2n1 [entospletinib]
Method in brief: as §1

Measured: log2 fold change

SPG21 (UniProt Q9NZD8)
active: [2] 0.305
inactive: [1] 0.072 | [3] -0.054 | [4] 0.123 | entinostat 0.004 | vorinostat 0.013 | citarinostat -0.001 | silmitasertib -0.013 | [5] -0.104 | [6] 0.007

SPTLC2 (UniProt O15270)
inactive: [1] -0.063 | [2] -0.028 | [3] -0.092 | [4] -0.044 | entinostat -0.021 | vorinostat -0.041 | citarinostat 0.035 | silmitasertib 0.034 | [5] -0.07 | [6] -0.033 | entospletinib 0.002

ST13 (UniProt P50502)
inactive: [1] 0.001 | [2] -0.053 | [3] -0.124 | [4] -0.055 | entinostat 0.025 | vorinostat -0.007 | citarinostat 0.008 | silmitasertib -0.004 | [5] -0.034 | [6] -0.03 | entospletinib 0.015

2 consecutive records out of the list so far, quoted:
SPTLC2 (UniProt O15270)
inactive: [1] -0.063 | [2] -0.028 | [3] -0.092 | [4] -0.044 | entinostat -0.021 | vorinostat -0.041 | citarinostat 0.035 | silmitasertib 0.034 | [5] -0.07 | [6] -0.033 | entospletinib 0.002

ST13 (UniProt P50502)
inactive: [1] 0.001 | [2] -0.053 | [3] -0.124 | [4] -0.055 | entinostat 0.025 | vorinostat -0.007 | citarinostat 0.008 | silmitasertib -0.004 | [5] -0.034 | [6] -0.03 | entospletinib 0.015

Next part

SPECC1 (UniProt Q5M775)
inactive: [1] -0.126 | [2] -0.053 | [3] -0.124 | [4] -0.132 | entinostat -0.007 | vorinostat 0 | citarinostat -0.213 | silmitasertib 0.08 | [5] -0.06 | [6] -0.091

SRP9 (UniProt P49458)
inactive: [1] 0.005 | [2] 0.044 | [3] 0.243 | [4] 0.12 | entinostat -0.101 | vorinostat -0.022 | citarinostat -0.067 | silmitasertib 0.141 | [5] 0.183 | [6] -0.187 | entospletinib 0.003

SSNA1 (UniProt O43805)
inactive: [1] 0.042 | [2] -0.098 | [3] -0.018 | [4] 0.006 | entinostat 0.027 | vorinostat 0.03 | citarinostat 0.075 | silmitasertib 0.005 | [5] 0.057 | [6] -0.007 | entospletinib 0.016

SPTBN4 (UniProt Q9H254)
inactive: [1] 0 | [2] -0.09 | [3] -0.095 | [4] 0.033 | entinostat 0.014 | vorinostat 0.026 | citarinostat 0.05 | silmitasertib 0.062 | [5] 0.129 | [6] -0.013

SPRYD4 (UniProt Q8WW59)
inactive: [1] -0.008 | [2] -0.048 | [3] -0.042 | [4] -0.071 | entinostat -0.021 | vorinostat 0.025 | citarinostat 0.054 | silmitasertib 0.004 | [5] -0.03 | [6] -0.034 | entospletinib 0.033

STAMBP (UniProt O95630)
inactive: [1] -0.067 | [2] -0.092 | [3] -0.077 | [4] -0.01 | entinostat 0.037 | vorinostat 0.02 | citarinostat 0.046 | silmitasertib 0.104 | [5] 0.005 | [6] 0.074 | entospletinib -0.013

SPG7 (UniProt Q9UQ90)
inactive: [1] -0.047 | [2] -0.041 | [3] -0.067 | [4] 0.012 | entinostat 0.009 | vorinostat 0.02 | citarinostat 0.011 | silmitasertib 0.001 | [5] -0.03 | [6] -0.025 | entospletinib 0.012

STAM (UniProt Q92783)
inactive: [1] -0.03 | [2] -0.046 | [3] -0.069 | [4] -0.037 | entinostat -0.015 | vorinostat -0.007 | citarinostat 0.044 | silmitasertib 0.036 | [5] 0.031 | [6] 0.052 | entospletinib -0.003

SSBP1 (UniProt Q04837)
inactive: [1] -0.037 | [2] -0.013 | [3] 0.024 | [4] 0.041 | entinostat -0.028 | vorinostat -0.054 | citarinostat -0.021 | silmitasertib 0.019 | [5] 0.028 | [6] -0.062 | entospletinib 0.031

SRSF5 (UniProt Q13243)
inactive: [1] -0.048 | [2] 0.31 | [3] 0.309 | [4] 0.032 | entinostat -0.078 | vorinostat -0.036 | citarinostat -0.056 | silmitasertib 0.031 | [5] 0.154 | [6] -0.21 | entospletinib 0.12

SRP14 (UniProt P37108)
inactive: [1] 0.036 | [2] -0.046 | [3] 0.294 | [4] 0.092 | entinostat -0.094 | vorinostat -0.02 | citarinostat -0.123 | silmitasertib 0.085 | [5] 0.153 | [6] -0.148 | entospletinib 0.121

SPATA5L1 (UniProt Q9BVQ7)
inactive: [1] 0.003 | [2] -0.048 | [3] 0.039 | [4] -0.013 | entinostat -0.054 | vorinostat -0.036 | citarinostat -0.046 | silmitasertib 0.007 | [5] -0.017 | [6] -0.019 | entospletinib -0.005

SPATA5 (UniProt Q8NB90)
inactive: [1] 0.02 | [2] 0.008 | [3] 0.033 | [4] 0.028 | entinostat -0.035 | vorinostat -0.013 | citarinostat -0.022 | silmitasertib 0.007 | [5] 0.015 | [6] -0.034 | entospletinib -0.012

SRSF10 (UniProt O75494)
inactive: [1] 0.059 | [2] -0.096 | [3] 0.444 | [4] 0.063 | entinostat -0.047 | vorinostat 0.048 | citarinostat -0.153 | silmitasertib 0.103 | [5] 0.304 | [6] -0.152

SPC24 (UniProt Q8NBT2)
inactive: [1] 0.038 | [2] 0.031 | [3] -0.092 | [4] 0.025 | entinostat 0.091 | vorinostat 0.095 | citarinostat 0.038 | silmitasertib 0.036 | [5] -0.059 | [6] 0 | entospletinib -0.018

STAT1 (UniProt P42224)
inactive: [1] 0.119 | [2] -0.202 | [3] 0.162 | [4] 0.077 | entinostat 0.012 | vorinostat 0.046 | citarinostat -0.03 | silmitasertib 0.242 | [5] 0.251 | [6] -0.087 | entospletinib 0.301

SPCS3 (UniProt P61009)
inactive: [1] 0.009 | [2] -0.009 | [3] -0.024 | [4] 0.007 | entinostat -0.059 | vorinostat -0.009 | citarinostat -0.002 | silmitasertib 0.017 | [5] -0.059 | [6] 0.035 | entospletinib -0.023

SPRY4 (UniProt Q9C004)
inactive: [1] 0.039 | [2] 0.042 | [3] 0.027 | [4] 0.03 | entinostat -0.011 | vorinostat -0.018 | citarinostat 0.045 | silmitasertib 0.086 | [5] -0.004 | [6] -0.032 | entospletinib -0.031

SPTLC1 (UniProt O15269)
inactive: [1] 0.021 | [2] 0.014 | [3] -0.066 | [4] -0.04 | entinostat 0.032 | vorinostat -0.011 | citarinostat 0.058 | silmitasertib 0.002 | [5] -0.031 | [6] -0.009 | entospletinib -0.009

SPN (UniProt P16150)
inactive: [1] -0.003 | [2] 0.044 | [3] 0.087 | [4] 0.031 | entinostat -0.059 | vorinostat -0.058 | citarinostat -0.016 | silmitasertib -0.056 | [5] -0.068 | [6] -0.006 | entospletinib -0.073

SSBP4 (UniProt Q9BWG4)
inactive: [1] 0.177 | [2] 0.041 | [3] -0.024 | entinostat -0.084 | vorinostat -0.107 | citarinostat 0.018 | silmitasertib -0.008 | [6] -0.093

ST7 (UniProt Q9NRC1)
inactive: [1] 0.016 | [2] 0.054 | [3] -0.031 | [4] -0.032 | entinostat -0.019 | vorinostat 0.029 | citarinostat -0.024 | silmitasertib 0.018 | [5] 0.045 | [6] -0.134 | entospletinib -0.007

SRRD (UniProt Q9UH36)
inactive: [1] 0.11 | [2] -0.057 | [3] -0.406 | entinostat -0.047 | citarinostat 0.056 | silmitasertib 0.281 | [5] 0.096 | [6] -0.039 | entospletinib 0.082

SPATA33 isoform 2 (UniProt Q96N06)
inactive: [1] 0.144 | [2] -0.07 | [4] 0.021 | entinostat -0.051 | vorinostat -0.029 | citarinostat 0.004 | [6] -0.073 | entospletinib 0.011

STAT2 (UniProt P52630)
inactive: [1] 0.169 | [2] -0.03 | [3] -0.488 | [4] -0.179 | entinostat 0.091 | vorinostat 0.088 | citarinostat 0.135 | silmitasertib 0.391 | [6] 0.016 | entospletinib 0.27
